{
  "source": "paper PMC11803820",
  "key": {"[1]": {"biological_target": "alpha-synuclein amyloid fibrils (sonicated for SPR) (UniProt P37840)", "assay": "SPR", "details": "apparent Kd in monomer units, 1:1 model, average of 3 experiments; SPR: HBS-P, 10 mM HEPES, 150 mM NaCl, 0.002% P20; 200 RU DNA immobilized, single cycle, regeneration with 5 M NaCl; pH and temperature not stated; recombinant protein"}, "[2]": {"biological_target": "alpha-synuclein monomer (UniProt P37840)", "assay": "SPR", "details": "up to 5 uM monomer; SPR: HBS-P, 10 mM HEPES, 150 mM NaCl, 0.002% P20; 200 RU DNA immobilized, single cycle, regeneration with 5 M NaCl; pH and temperature not stated; recombinant protein"}},
  "note": "For at least one entry, the source does not settle the construct or the ends of the probe. For some assays here: Negatives hold for the conditions tested.",
  "data": [
    {"sequence": "CGATTCAGTAGCAGACAGCTAGCTAGAGAGCTCATCATGTCCAGATCTCC (double strand) [50-bp dsDNA]", "values": [
      {"measurement": "Kd", "setting": "[1]", "result": 4, "unit": "µM"},
      {"measurement": "binding result", "setting": "[2]", "result": "no binding"}
    ]}
  ]
}
